Reference: PubChem BioAssay AID1259254 (NCATS, 2017)

Screen: 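Genome-wide screen for genes that prevent DNA re-replication in cancer cells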 (primary screen)
System: human HCT116 colorectal cancer cells
Knock-down reagent: single siRNA against human genes
Timing: 3 days
Measured: 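Imaged Hoechst DNA stain sorts each cell into a cycle phase by DNA amount; per plate, G2 fraction set to 0% for non-targeting and 100% for GMNN siRNA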
Reading the numbers: G2 robust z-score and G2 cells, % of GMNN control: higher = more G2 cells, more excess DNA replication; raw share of cells in G2: higher = larger share of cells with G2 DNA content
Call rule: 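Active siRNAs have a G2 robust z of 5 or more median absolute deviations over the median, which in these data means about 38% or higher of GMNN control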
This is a random part of about 59,000 reagents. About 1,550 of all reagents (2.6%) count as active. 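G2 share is only a proxy for re-replication; each gene was hit by three separate siRNAs, and active genes were retested.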 The raw values are shown without normalisation. A number with no mark means an inactive call. Reagents against one gene are numbered here. The record does not give: the amount of reagent.

gene knocked down | reagent no. | G2 robust z-score | G2 cells, % of GMNN control | raw share of cells in G2 (%)
SPTB (spectrin beta, erythrocytic) | 1 | -1.3 | -6.17 | 2.43
SPTB (spectrin beta, erythrocytic) | 2 | 0.357 | 5.48 | 5.77
SPTB (spectrin beta, erythrocytic) | 3 | -1.19 | -5.41 | 3.86
U2AF1 (U2 small nuclear RNA auxiliary factor 1) | 1 | 0.178 | 4.22 | 7.38
U2AF1 (U2 small nuclear RNA auxiliary factor 1) | 2 | -0.88 | -3.22 | 3.06
U2AF1 (U2 small nuclear RNA auxiliary factor 1) | 3 | 0.317 | 5.2 | 6.19
THOP1 (thimet oligopeptidase 1) | 1 | 1.3 | 12.1 | 9.77
THOP1 (thimet oligopeptidase 1) | 2 | 0.105 | 3.71 | 6.22
THOP1 (thimet oligopeptidase 1) | 3 | 1.03 | 10.2 | 7.71
CASP6 (caspase 6) | 1 | 0.488 | 6.4 | 7.79
CASP6 (caspase 6) | 2 | 0.998 | 9.99 | 8.44
CASP6 (caspase 6) | 3 | 0.211 | 4.45 | 5.57
TMPRSS11E (transmembrane serine protease 11E) | 1 | 3.25 | 25.9 | 14.6
TMPRSS11E (transmembrane serine protease 11E) | 2 | -0.867 | -3.13 | 3.8
TMPRSS11E (transmembrane serine protease 11E) | 3 | -0.605 | -1.29 | 3.43
ZNF24 (zinc finger protein 24) | 1 | -0.646 | -1.58 | 3.67
ZNF24 (zinc finger protein 24) | 2 | 0.293 | 5.03 | 7.72
ZNF24 (zinc finger protein 24) | 3 | -0.0449 | 2.65 | 5.35
THOC7 (THO complex subunit 7) | 1 | 0.31 | 5.15 | 6.58
THOC7 (THO complex subunit 7) | 2 | -0.765 | -2.42 | 3.25
THOC7 (THO complex subunit 7) | 3 | -0.671 | -1.76 | 1.9
IFNGR1 (interferon gamma receptor 1) | 1 | -0.636 | -1.51 | 3.65
IFNGR1 (interferon gamma receptor 1) | 2 | -1.6 | -8.31 | 2.52
IFNGR1 (interferon gamma receptor 1) | 3 | -0.826 | -2.85 | 4.01
VIM (vimentin) | 1 | 0.297 | 5.06 | 6.14
VIM (vimentin) | 2 | -0.574 | -1.07 | 3.86
VIM (vimentin) | 3 | -0.972 | -3.87 | 3.96
FABP5P10 (fatty acid binding protein 5 pseudogene 10) | 1 | 0.469 | 6.27 | 6.71
FABP5P10 (fatty acid binding protein 5 pseudogene 10) | 2 | 1.44 | 13.1 | 8.49
FABP5P10 (fatty acid binding protein 5 pseudogene 10) | 3 | 0.965 | 9.76 | 7.53
C1orf146 (chromosome 1 open reading frame 146) | 1 | 1.19 | 11.4 | 7.67
C1orf146 (chromosome 1 open reading frame 146) | 2 | -0.282 | 0.982 | 3.83
C1orf146 (chromosome 1 open reading frame 146) | 3 | 0.239 | 4.65 | 6.63
ZDHHC2 (zDHHC palmitoyltransferase 2) | 1 | 2.3 | 19.1 | 14.6
ZDHHC2 (zDHHC palmitoyltransferase 2) | 2 | 1.28 | 12 | 8.66
ZDHHC2 (zDHHC palmitoyltransferase 2) | 3 | -0.793 | -2.61 | 2.8
ZNF222 (zinc finger protein 222) | 1 | -1.46 | -7.28 | 1.11
ZNF222 (zinc finger protein 222) | 2 | -0.884 | -3.25 | 4.54
ZNF222 (zinc finger protein 222) | 3 | 0.592 | 7.13 | 6.33
FANCB (FA complementation group B) | 1 | -0.514 | -0.648 | 3.27
FANCB (FA complementation group B) | 2 | 0.293 | 5.03 | 7.66
FANCB (FA complementation group B) | 3 | -0.804 | -2.69 | 3.1
LOC644554 | 1 | -0.229 | 1.35 | 4.15
LOC644554 | 2 | 0.301 | 5.08 | 5.1
LOC644554 | 3 | 0.0985 | 3.66 | 4.21
SLC67A2 | 1 | 4.75 | 36.4 | 20.6
SLC67A2 | 2 | -0.49 | -0.481 | 4.02
SLC67A2 | 3 | 1.95 | 16.7 | 11

Records above whose target name starts with V or v (3):
gene knocked down | reagent no. | G2 robust z-score | G2 cells, % of GMNN control | raw share of cells in G2 (%)
VIM (vimentin) | 1 | 0.297 | 5.06 | 6.14
VIM (vimentin) | 2 | -0.574 | -1.07 | 3.86
VIM (vimentin) | 3 | -0.972 | -3.87 | 3.96
